Measurements from patent US20260248780A1, “PHARMACEUTICAL COMPOSITIONS” (Birdie Biopharmaceuticals, Inc., priority 2017, published 2026).
Where a name gives a salt, the structure may show the parent alone. Further values from the same series stand in other lists. Marks after values point to notes of the source that are not given here.

Columns and labels:
[1] = Kinetic solubility in water and bio-relevant media (SGF, FaSSIF, FeSSIF) at RT; assay type: physicochemical
Procedure: After being centrifuged and separated using 0.45 μm Nylon filter, filtrates were collected for HPLC and pH test, and wet cakes for XRPD characterization. If clear solutions were obtained after 24 hours, accurate concentration and purity were measured for the solutions.

[2] = Solubility estimation in solvents at RT; assay type: physicochemical

With CCOCc1nc2c(N)nc3ccccc3c2n1CC(C)(C)O [Sulfate Type A, resiquimod] the “S: Solubility” value ([1]; FeSSIF, 2 hrs) was “C (C: Clear)”, the “S: Solubility” value ([1]; FeSSIF, 4 hrs) was “C (C: Clear)” and the “S: Solubility” value ([1]; FeSSIF, 24 hrs) was 4.2* mg/mL.

For CCOCc1nc2c(N)nc3ccccc3c2n1CC(C)(C)O [Freebase Type A, 1-[4-amino-2-(ethoxymethyl)imidazo-[4,5-c]-quinolin-1-yl]-2-methylpropan-2-ol], the Solubility ([2]; Anisole, RT, listed as 807920-05-A) was “S < 2.3 mg/mL”, the Solubility ([2]; DMAc, RT, listed as 807920-05-A) was “S > 48.0 mg/mL” and the Solubility ([2]; DMSO, RT, listed as 807920-05-A) was “S > 44.0 mg/mL”. For the same compound, the Solubility ([2]; H2O, RT, listed as 807920-05-A) was “S < 2.1 mg/mL”, the Solubility ([2]; MTBE, RT, listed as 807920-05-A) was “S < 2.2 mg/mL” and the Solubility ([2]; MeOH, RT, listed as 807920-05-A) was “S > 46.0 mg/mL”. For the same compound, the Solubility ([2]; NMP, RT, listed as 807920-05-A) was “S > 40.0 mg/mL”, the Solubility ([2]; n-heptane, RT, listed as 807920-05-A) was “S < 2.0 mg/mL” and the Solubility ([2]; toluene, RT, listed as 807920-05-A) was “S < 2.2 mg/mL”. For the same compound, the “S: Solubility” value ([1]; FeSSIF, 1 hr) was 4.9 mg/mL, the “S: Solubility” value ([1]; FeSSIF, 2 hrs) was 4.9 mg/mL and the “S: Solubility” value ([1]; FeSSIF, 4 hrs) was 4.9 mg/mL. For the same compound, the “S: Solubility” value ([1]; FeSSIF, 24 hrs) was 4.9* mg/mL.

In the case of CCOCc1nc2c(N)nc3ccccc3c2n1CC(C)(C)O [Mono-HCl salt Type A, resiquimod], the “S: Solubility” value ([1]; Water, 1 hr) is reported as “C (C: Clear)”, the “S: Solubility” value ([1]; Water, 2 hrs) is reported as “C (C: Clear)” and the “S: Solubility” value ([1]; Water, 4 hrs) is reported as “C (C: Clear)”.

For CCOCc1nc2c(N)nc3ccccc3c2n1CC(C)(C)O [Di-HCl salt Type A, resiquimod], the “S: Solubility” value ([1]; Water, 1 hr) was “C (C: Clear)”, the “S: Solubility” value ([1]; Water, 2 hrs) was “C (C: Clear)” and the “S: Solubility” value ([1]; Water, 4 hrs) was “C (C: Clear)”. The “S: Solubility” value ([1]; Water, 24 hrs) was 3.8* mg/mL.

In the case of CCOCc1nc2c(N)nc3ccccc3c2n1CC(C)(C)O [sulfate Type A (807919-21-A)], the Solubility ([2]; 1,4-dioxane, RT) is reported as “S < 2.1 mg/mL”, the Solubility ([2]; 2-MeTHF, RT) is reported as “S < 2.2 mg/mL” and the Solubility ([2]; Acetone, RT) is reported as “S < 2.0 mg/mL”. For the same compound, the Solubility ([2]; CHCl3, RT) was “S < 2.0 mg/mL”, the Solubility ([2]; DCM, RT) was “S < 2.3 mg/mL” and the Solubility ([2]; Ethyl lactate, RT) was “S < 2.2 mg/mL”. For the same compound, the Solubility ([2]; H2O, RT) was “S > 44.0 mg/mL”, the Solubility ([2]; IBA, RT) was “S < 2.1 mg/mL” and the Solubility ([2]; IPA, RT) was “S < 2.2 mg/mL”. The Solubility ([2]; THF, RT) was “S < 2.3 mg/mL”.

In the case of CCOCc1nc2c(N)nc3ccccc3c2n1CC(C)(C)O [Malate Type A, resiquimod], the “S: Solubility” value ([1]; FeSSIF, 1 hr) is reported as “C (C: Clear)”, the “S: Solubility” value ([1]; FeSSIF, 2 hrs) is reported as “C (C: Clear)” and the “S: Solubility” value ([1]; FeSSIF, 4 hrs) is reported as “C (C: Clear)”. For the same compound, the “S: Solubility” value ([1]; FeSSIF, 24 hrs) was 3.5* mg/mL.

In the case of CCOCc1nc2c(N)nc3ccccc3c2n1CC(C)(C)O [Adipate Type A, resiquimod], the “S: Solubility” value ([1]; FeSSIF, 1 hr) is reported as “C (C: Clear)”, the “S: Solubility” value ([1]; FeSSIF, 2 hrs) is reported as “C (C: Clear)” and the “S: Solubility” value ([1]; FeSSIF, 4 hrs) is reported as “C (C: Clear)”. The “S: Solubility” value ([1]; FeSSIF, 24 hrs) was 4.2* mg/mL.

With CCOCc1nc2c(N)nc3ccccc3c2n1CC(C)(C)O [Maleate Type A, resiquimod] the “S: Solubility” value ([1]; FeSSIF, 1 hr) was 1.5 mg/mL, the “S: Solubility” value ([1]; FeSSIF, 2 hrs) was 1.6 mg/mL and the “S: Solubility” value ([1]; FeSSIF, 4 hrs) was 1.7 mg/mL. For the same compound, the “S: Solubility” value ([1]; FeSSIF, 24 hrs) was 1.6 mg/mL.

In the case of CCOCc1nc2c(N)nc3ccccc3c2n1CC(C)(C)O [Phosphate Type A, resiquimod], the “S: Solubility” value ([1]; FeSSIF, 1 hr) is reported as “C (C: Clear)”, the “S: Solubility” value ([1]; FeSSIF, 2 hrs) is reported as “C (C: Clear)” and the “S: Solubility” value ([1]; FeSSIF, 4 hrs) is reported as “C (C: Clear)”. The “S: Solubility” value ([1]; FeSSIF, 24 hrs) was 3.8* mg/mL.
